Measurements published in the supplement of paper PMC6078165.
The reference is the same well before dosing, and untreated signal decays as well.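 Fibroblast labels name human fibroblasts: mostly primary ones from tissues such as uterus (C12385, HUF), lung (H6013), bone (Hs27A), adrenal (HADF) and skin (WS1), plus mammary HMF and breast cancer-associated Hs343T. The cancer cells are basal-like or mesenchymal-like triple-negative breast cancer lines. The paper calls a changed response a hit when it shifts by more than 3x the replicate standard deviation. The tissue of the other fibroblasts is not given here.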

Tested on: HCC1143
Test: relative JC-1 red fluorescence (viability) vs pre-drug, coculture with fibroblast (fraction); higher = more viable cancer cells
Method: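 JC-1 labelled TNBC cells cocultured 1:1 (1,500 cells each) with CellTrace Violet stained primary or stromal fibroblasts in 384-well plates in FluoroBrite medium, treated with one of 42 anticancer drugs at 0.1, 1, 10 or 100 uM. JC-1 red fluorescence (mitochondrial integrity in cancer cells only) was read by plate reader every 8 h for 72 h. Values are normalised to each well's pre-drug value. The stock of one drug was tenfold lower, so its dose labels may be too high.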

O=C(O)C(=O)O.[NH-][C@@H]1CCCC[C@H]1[NH-].[Pt+2] [Oxaliplatin]
relative JC-1 red fluorescence
Details	8 h	16 h	24 h	32 h	40 h	48 h	56 h	64 h	72 h
0.1 µM, coculture fibroblast: C12385	0.83151	0.7687	0.731	0.6773	0.6253	0.609	0.5856	0.567	0.57
0.1 µM, coculture fibroblast: H6013	0.826	0.805	0.784	0.782	0.732	0.746	0.719	0.71	0.679
0.1 µM, coculture fibroblast: H6019	0.815	0.747	0.719	0.668	0.633	0.64	0.593	0.561	0.526
0.1 µM, coculture fibroblast: H6076	0.8346	0.828	0.809	0.773	0.726	0.726	0.697	0.675	0.694
0.1 µM, coculture fibroblast: H6231	0.797	0.824	0.767	0.671	0.694	0.669	0.634	0.607	0.591
0.1 µM, coculture fibroblast: HADF	0.743	0.693	0.661	0.6701	0.5848	0.57221	0.5514	0.5352	0.5082
0.1 µM, coculture fibroblast: HCFa	0.817	0.771	0.734	0.726	0.664	0.655	0.609	0.587	0.546
0.1 µM, coculture fibroblast: HCPF	0.804	0.7893	0.74	0.658	0.641	0.613	0.573	0.54	0.531
0.1 µM, coculture fibroblast: HHSteC	0.8612	0.816	0.788	0.761	0.702	0.679	0.64	0.614	0.569
0.1 µM, coculture fibroblast: HMF	0.803	0.832	0.762	0.6805	0.669	0.647	0.615	0.593	0.577
0.1 µM, coculture fibroblast: HPFa	0.914	0.845	0.825	0.754	0.699	0.671	0.621	0.581	0.546
0.1 µM, coculture fibroblast: HUF	0.8834	0.82	0.787	0.723	0.678	0.672	0.639	0.622	0.596
0.1 µM, coculture fibroblast: Hs5	0.862	0.8922	0.8467	0.8129	0.7569	0.7298	0.7032	0.6782	0.679
0.1 µM, coculture fibroblast: Hs27A	0.727	0.7	0.673	0.694	0.589	0.594	0.56	0.539	0.506
0.1 µM, coculture fibroblast: Hs343T	0.813	0.802	0.77	0.713	0.662	0.651	0.612	0.591	0.58
0.1 µM, coculture fibroblast: WS1	0.8142	0.753	0.73	0.666	0.626	0.617	0.579	0.559	0.552
1 µM, coculture fibroblast: C12385	0.8274	0.7219	0.643	0.579	0.51	0.455	0.408	0.368	0.343
1 µM, coculture fibroblast: H6013	0.758	0.667	0.65	0.648	0.58	0.576	0.551	0.532	0.517
1 µM, coculture fibroblast: H6019	0.824	0.741	0.692	0.643	0.605	0.579	0.542	0.509	0.48
1 µM, coculture fibroblast: H6076	0.799	0.805	0.774	0.718	0.706	0.701	0.678	0.662	0.663
1 µM, coculture fibroblast: H6231	0.7982	0.8233	0.711	0.578	0.614	0.572	0.537	0.51	0.489
1 µM, coculture fibroblast: HADF	0.71	0.625	0.597	0.617	0.527	0.505	0.479	0.459	0.471
1 µM, coculture fibroblast: HCFa	0.781	0.684	0.656	0.652	0.572	0.545	0.512	0.485	0.468
1 µM, coculture fibroblast: HCPF	0.796	0.817	0.755	0.633	0.665	0.642	0.605	0.572	0.553
1 µM, coculture fibroblast: HHSteC	0.832	0.734	0.695	0.654	0.589	0.559	0.523	0.498	0.462
1 µM, coculture fibroblast: HMF	0.814	0.805	0.762	0.67	0.69	0.671	0.644	0.62	0.59
1 µM, coculture fibroblast: HPFa	0.946	0.8749	0.8548	0.7844	0.7438	0.72	0.677	0.639	0.606
1 µM, coculture fibroblast: HUF	0.885	0.778	0.729	0.672	0.634	0.602	0.556	0.532	0.502
1 µM, coculture fibroblast: Hs5	0.838	0.863	0.793	0.737	0.694	0.66	0.627	0.6	0.579
1 µM, coculture fibroblast: Hs27A	0.689	0.616	0.584	0.624	0.505	0.498	0.468	0.442	0.452
1 µM, coculture fibroblast: Hs343T	0.805	0.847	0.779	0.646	0.688	0.655	0.598	0.576	0.545
1 µM, coculture fibroblast: WS1	0.848	0.758	0.7241	0.661	0.624	0.5857	0.5487	0.519	0.496
10 µM, coculture fibroblast: C12385	0.8253	0.768	0.726	0.67	0.617	0.574	0.546	0.515	0.494
10 µM, coculture fibroblast: H6013	0.76036	0.6998	0.6802	0.67	0.6167	0.6195	0.598	0.589	0.552
10 µM, coculture fibroblast: H6019	0.82583	0.7628	0.7	0.638	0.596	0.562	0.52	0.482	0.454
10 µM, coculture fibroblast: H6076	0.813	0.839	0.781	0.715	0.701	0.687	0.661	0.64	0.649
10 µM, coculture fibroblast: H6231	0.843	0.837	0.79	0.683	0.714	0.686	0.662	0.619	0.601
10 µM, coculture fibroblast: HADF	0.6965	0.6473	0.6218	0.634	0.535	0.515	0.4908	0.4714	0.516
10 µM, coculture fibroblast: HCFa	0.808	0.731	0.696	0.686	0.606	0.59	0.553	0.523	0.508
10 µM, coculture fibroblast: HCPF	0.796	0.836	0.78437	0.661	0.719	0.693	0.679	0.655	0.65
10 µM, coculture fibroblast: HHSteC	0.858	0.828	0.821	0.805	0.766	0.75	0.714	0.687	0.638
10 µM, coculture fibroblast: HMF	0.7984	0.8417	0.778	0.668	0.686	0.652	0.621	0.596	0.567
10 µM, coculture fibroblast: HPFa	0.8949	0.804	0.763	0.665	0.6132	0.5849	0.534	0.493	0.458
10 µM, coculture fibroblast: HUF	0.8813	0.801	0.758	0.701	0.663	0.642	0.603	0.567	0.543
10 µM, coculture fibroblast: Hs5	0.86	0.892	0.844	0.815	0.766	0.742	0.72	0.69	0.695
10 µM, coculture fibroblast: Hs27A	0.697	0.625	0.5903	0.6267	0.513	0.511	0.492	0.481	0.509
10 µM, coculture fibroblast: Hs343T	0.83	0.858	0.803	0.708	0.71	0.68	0.635	0.612	0.571
10 µM, coculture fibroblast: WS1	0.838	0.7628	0.7063	0.6372	0.5875	0.549	0.503	0.471	0.443
100 µM, coculture fibroblast: C12385	0.809	0.641	0.53	0.439	0.38	0.348	0.325	0.293	0.279
100 µM, coculture fibroblast: H6013	0.693	0.532	0.46375	0.404	0.36285	0.362	0.3282	0.3161	0.257
100 µM, coculture fibroblast: H6019	0.7944	0.668	0.614	0.537	0.488	0.461	0.418	0.39	0.364
100 µM, coculture fibroblast: H6076	0.808	0.711	0.6336	0.586	0.513	0.489	0.452	0.423	0.424
100 µM, coculture fibroblast: H6231	0.8035	0.795	0.6216	0.542	0.477	0.446	0.399	0.368	0.347
100 µM, coculture fibroblast: HADF	0.732	0.628	0.57	0.534	0.464	0.454	0.424	0.406	0.35
100 µM, coculture fibroblast: HCFa	0.763	0.628	0.569	0.524	0.451	0.431	0.384	0.36	0.313
100 µM, coculture fibroblast: HCPF	0.8074	0.803	0.718	0.618	0.602	0.568	0.524	0.495	0.485
100 µM, coculture fibroblast: HHSteC	0.832	0.739	0.696	0.648	0.6	0.589	0.552	0.533	0.473
100 µM, coculture fibroblast: HMF	0.83153	0.795	0.704	0.632	0.572	0.533	0.492	0.465	0.443
100 µM, coculture fibroblast: HPFa	0.861	0.673	0.608	0.523	0.468	0.457	0.415	0.396	0.381
100 µM, coculture fibroblast: HUF	0.8788	0.743	0.644	0.546	0.491	0.466	0.429	0.403	0.385
100 µM, coculture fibroblast: Hs5	0.8722	0.8423	0.74	0.709	0.6304	0.6094	0.582	0.553	0.562
100 µM, coculture fibroblast: Hs27A	0.659	0.537	0.487	0.49	0.417	0.426	0.401	0.395	0.346
100 µM, coculture fibroblast: Hs343T	0.7909	0.7902	0.653	0.561	0.516	0.47	0.42	0.388	0.36
100 µM, coculture fibroblast: WS1	0.7914	0.602	0.508	0.427	0.37	0.344	0.314	0.299	0.287
